Data published in the supplement of paper PMC10849652.
This is one part of the list. Residues, ends and D or L forms follow the SMILES beside them. *: point of attachment. Cbz = O=C(OCc1ccccc1)*

Sequences of proteins named here, by UniProt entry; tags and fusion partners are left off. A change or cut given only in a name is not applied to a line headed by its entry.
UniProt Q6UX04: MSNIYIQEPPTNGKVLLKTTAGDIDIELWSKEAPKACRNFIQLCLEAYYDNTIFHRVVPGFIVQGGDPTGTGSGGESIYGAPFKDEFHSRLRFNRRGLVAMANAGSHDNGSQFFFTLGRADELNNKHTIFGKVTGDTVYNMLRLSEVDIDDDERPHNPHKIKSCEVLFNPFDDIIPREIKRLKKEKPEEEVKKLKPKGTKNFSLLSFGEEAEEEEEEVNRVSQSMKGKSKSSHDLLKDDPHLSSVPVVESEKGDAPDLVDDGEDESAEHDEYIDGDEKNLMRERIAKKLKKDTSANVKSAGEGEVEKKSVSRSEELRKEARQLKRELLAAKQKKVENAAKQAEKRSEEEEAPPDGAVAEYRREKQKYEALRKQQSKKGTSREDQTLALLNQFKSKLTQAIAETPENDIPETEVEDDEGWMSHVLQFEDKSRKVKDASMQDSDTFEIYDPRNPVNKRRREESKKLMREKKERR
UniProt P98082: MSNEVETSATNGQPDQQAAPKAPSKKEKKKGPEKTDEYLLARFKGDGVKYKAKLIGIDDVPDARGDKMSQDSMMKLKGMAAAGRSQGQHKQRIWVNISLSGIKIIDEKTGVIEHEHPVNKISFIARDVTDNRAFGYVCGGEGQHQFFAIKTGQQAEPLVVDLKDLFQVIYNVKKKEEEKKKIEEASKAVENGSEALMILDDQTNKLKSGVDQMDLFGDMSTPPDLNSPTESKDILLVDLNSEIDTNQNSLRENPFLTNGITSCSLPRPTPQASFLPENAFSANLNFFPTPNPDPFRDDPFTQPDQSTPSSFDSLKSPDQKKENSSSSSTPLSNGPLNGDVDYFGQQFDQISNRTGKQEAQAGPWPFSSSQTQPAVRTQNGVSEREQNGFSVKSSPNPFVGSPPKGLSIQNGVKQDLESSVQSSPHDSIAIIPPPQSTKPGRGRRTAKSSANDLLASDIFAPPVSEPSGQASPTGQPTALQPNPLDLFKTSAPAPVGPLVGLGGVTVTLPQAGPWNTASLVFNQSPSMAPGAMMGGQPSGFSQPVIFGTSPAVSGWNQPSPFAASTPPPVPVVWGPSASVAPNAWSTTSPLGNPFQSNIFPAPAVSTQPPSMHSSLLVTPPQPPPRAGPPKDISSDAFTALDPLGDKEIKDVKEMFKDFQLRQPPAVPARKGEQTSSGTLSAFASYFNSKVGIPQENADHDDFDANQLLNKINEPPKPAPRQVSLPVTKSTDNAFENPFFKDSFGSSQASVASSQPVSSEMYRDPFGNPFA
UniProt Q9H773: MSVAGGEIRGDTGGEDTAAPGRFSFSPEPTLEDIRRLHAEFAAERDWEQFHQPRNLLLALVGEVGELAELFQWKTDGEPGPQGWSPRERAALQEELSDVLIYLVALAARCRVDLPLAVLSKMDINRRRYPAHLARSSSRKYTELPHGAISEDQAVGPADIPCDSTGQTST
UniProt P49447: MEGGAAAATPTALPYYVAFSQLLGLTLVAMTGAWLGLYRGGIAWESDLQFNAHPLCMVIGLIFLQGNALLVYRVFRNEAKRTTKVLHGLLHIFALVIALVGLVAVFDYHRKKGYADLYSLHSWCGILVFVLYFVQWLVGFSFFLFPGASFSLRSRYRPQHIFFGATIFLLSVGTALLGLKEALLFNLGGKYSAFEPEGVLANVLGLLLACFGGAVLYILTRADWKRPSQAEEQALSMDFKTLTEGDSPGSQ
UniProt Q9Y6A2: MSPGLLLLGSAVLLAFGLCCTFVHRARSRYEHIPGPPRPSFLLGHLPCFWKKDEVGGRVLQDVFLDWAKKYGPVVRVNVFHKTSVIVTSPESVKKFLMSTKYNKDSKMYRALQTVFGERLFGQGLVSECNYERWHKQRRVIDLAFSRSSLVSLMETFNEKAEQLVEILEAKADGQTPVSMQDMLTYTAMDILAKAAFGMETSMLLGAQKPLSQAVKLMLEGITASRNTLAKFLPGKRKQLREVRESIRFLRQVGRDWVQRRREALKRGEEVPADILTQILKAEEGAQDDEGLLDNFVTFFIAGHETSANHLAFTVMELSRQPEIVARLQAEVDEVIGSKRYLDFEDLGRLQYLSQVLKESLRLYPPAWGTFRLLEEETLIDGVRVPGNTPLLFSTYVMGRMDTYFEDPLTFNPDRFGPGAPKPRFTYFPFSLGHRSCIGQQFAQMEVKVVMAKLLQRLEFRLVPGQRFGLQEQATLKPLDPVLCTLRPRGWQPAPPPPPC
UniProt P61803: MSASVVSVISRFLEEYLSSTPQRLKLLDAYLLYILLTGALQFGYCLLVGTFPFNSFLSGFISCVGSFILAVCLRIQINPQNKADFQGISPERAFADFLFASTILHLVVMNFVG
UniProt O60716: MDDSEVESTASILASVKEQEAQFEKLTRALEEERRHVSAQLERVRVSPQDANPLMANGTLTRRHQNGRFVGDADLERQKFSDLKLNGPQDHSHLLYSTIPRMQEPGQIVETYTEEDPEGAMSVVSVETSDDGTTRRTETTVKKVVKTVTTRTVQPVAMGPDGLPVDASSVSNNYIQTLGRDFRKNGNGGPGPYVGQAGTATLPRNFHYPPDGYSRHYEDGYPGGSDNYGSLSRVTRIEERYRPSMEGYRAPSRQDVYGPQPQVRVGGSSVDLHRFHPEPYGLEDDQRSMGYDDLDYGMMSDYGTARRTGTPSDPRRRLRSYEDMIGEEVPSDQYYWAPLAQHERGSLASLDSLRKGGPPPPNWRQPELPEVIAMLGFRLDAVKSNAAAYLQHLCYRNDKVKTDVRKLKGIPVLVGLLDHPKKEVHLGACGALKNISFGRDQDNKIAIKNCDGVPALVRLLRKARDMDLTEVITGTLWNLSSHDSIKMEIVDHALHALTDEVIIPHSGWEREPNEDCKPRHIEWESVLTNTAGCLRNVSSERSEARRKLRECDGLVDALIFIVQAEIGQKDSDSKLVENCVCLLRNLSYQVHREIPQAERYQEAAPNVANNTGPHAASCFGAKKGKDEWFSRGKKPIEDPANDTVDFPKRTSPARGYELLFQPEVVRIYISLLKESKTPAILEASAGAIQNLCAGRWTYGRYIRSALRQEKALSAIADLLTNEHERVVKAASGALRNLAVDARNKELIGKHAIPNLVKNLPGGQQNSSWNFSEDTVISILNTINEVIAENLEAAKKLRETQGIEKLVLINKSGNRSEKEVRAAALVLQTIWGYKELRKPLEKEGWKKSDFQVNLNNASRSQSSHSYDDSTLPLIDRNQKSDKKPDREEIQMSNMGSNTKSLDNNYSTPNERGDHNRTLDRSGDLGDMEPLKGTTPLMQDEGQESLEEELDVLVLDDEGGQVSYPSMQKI
UniProt Q9NV06: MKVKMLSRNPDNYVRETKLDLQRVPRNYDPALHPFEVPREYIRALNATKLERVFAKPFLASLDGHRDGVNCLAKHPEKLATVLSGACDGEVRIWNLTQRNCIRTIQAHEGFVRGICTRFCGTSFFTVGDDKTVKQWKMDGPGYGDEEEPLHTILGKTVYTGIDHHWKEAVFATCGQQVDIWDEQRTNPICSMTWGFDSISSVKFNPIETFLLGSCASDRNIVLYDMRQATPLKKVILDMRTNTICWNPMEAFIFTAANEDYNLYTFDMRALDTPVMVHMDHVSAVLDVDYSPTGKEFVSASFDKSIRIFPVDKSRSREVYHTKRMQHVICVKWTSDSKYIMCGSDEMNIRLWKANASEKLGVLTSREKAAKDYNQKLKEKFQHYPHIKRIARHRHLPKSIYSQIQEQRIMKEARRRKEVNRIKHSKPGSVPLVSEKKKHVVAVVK
UniProt Q9UJU6: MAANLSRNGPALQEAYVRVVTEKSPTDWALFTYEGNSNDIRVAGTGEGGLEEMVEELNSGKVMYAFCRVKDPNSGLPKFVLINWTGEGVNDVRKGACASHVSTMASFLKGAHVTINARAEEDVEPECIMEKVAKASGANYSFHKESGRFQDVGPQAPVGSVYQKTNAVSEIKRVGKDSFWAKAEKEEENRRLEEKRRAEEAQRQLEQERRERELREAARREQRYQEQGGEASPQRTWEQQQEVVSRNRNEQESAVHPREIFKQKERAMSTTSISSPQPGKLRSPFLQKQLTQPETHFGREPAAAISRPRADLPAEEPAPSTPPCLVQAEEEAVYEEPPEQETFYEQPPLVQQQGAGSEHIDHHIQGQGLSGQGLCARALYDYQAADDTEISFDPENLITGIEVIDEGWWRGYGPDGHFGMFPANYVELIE
UniProt Q9BWK5: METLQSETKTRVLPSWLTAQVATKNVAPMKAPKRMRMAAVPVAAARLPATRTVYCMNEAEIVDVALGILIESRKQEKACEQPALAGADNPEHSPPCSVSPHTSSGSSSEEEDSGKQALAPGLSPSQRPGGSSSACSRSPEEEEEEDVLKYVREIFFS
UniProt Q7Z7A3: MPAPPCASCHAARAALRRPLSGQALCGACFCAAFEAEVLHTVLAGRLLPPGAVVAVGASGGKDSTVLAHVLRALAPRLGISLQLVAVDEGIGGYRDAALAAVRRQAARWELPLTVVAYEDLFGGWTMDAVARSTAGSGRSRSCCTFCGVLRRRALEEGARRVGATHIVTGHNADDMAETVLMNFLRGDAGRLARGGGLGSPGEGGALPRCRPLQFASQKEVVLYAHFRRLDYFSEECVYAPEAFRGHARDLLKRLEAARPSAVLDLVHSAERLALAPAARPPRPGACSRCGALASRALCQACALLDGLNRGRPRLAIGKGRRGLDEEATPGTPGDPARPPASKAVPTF
UniProt O60911: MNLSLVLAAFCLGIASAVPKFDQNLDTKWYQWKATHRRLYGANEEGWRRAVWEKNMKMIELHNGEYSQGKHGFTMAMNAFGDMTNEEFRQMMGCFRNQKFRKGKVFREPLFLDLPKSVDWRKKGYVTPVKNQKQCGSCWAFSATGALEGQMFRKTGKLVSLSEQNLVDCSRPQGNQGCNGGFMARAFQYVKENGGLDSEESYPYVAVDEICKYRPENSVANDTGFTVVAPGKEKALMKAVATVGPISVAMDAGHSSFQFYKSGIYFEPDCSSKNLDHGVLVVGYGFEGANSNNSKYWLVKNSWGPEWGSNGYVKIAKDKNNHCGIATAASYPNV
UniProt Q16643: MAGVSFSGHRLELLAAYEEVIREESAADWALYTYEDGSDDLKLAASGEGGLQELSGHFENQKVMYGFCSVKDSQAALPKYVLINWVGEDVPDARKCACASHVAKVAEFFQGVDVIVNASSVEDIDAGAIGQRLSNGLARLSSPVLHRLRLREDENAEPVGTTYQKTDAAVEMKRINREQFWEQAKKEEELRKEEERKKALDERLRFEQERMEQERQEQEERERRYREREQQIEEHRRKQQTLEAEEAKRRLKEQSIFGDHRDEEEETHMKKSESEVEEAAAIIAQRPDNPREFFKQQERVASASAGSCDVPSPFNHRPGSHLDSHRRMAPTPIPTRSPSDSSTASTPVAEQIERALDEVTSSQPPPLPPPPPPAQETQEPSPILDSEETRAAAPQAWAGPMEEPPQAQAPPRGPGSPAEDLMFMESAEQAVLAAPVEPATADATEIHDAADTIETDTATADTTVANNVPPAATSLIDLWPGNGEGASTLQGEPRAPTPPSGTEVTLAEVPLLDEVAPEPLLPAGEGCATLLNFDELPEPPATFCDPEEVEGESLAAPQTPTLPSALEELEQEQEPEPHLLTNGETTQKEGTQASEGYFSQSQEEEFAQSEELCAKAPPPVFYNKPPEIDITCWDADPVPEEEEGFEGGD
UniProt Q9BTE1, whole entry, looked up: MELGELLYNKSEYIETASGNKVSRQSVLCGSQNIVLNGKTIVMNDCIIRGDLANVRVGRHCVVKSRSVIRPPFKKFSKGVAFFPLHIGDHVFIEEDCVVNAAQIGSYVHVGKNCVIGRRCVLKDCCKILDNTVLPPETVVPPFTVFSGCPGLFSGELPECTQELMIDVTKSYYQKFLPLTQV
UniProt Q9UK59: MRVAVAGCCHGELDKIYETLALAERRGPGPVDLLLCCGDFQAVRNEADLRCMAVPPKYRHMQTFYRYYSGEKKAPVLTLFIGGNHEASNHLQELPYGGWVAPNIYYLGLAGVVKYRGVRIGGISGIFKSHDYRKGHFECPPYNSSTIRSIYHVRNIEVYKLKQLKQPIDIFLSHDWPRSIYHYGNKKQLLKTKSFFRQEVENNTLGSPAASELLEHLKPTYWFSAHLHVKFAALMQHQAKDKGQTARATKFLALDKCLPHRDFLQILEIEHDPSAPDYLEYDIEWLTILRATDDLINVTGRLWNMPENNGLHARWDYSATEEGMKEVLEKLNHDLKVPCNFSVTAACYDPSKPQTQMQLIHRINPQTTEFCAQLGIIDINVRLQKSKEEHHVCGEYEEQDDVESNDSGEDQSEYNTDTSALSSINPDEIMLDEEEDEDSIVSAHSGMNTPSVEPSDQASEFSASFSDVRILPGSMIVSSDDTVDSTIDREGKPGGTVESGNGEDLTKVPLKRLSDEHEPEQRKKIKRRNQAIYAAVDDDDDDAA
UniProt Q96GG9: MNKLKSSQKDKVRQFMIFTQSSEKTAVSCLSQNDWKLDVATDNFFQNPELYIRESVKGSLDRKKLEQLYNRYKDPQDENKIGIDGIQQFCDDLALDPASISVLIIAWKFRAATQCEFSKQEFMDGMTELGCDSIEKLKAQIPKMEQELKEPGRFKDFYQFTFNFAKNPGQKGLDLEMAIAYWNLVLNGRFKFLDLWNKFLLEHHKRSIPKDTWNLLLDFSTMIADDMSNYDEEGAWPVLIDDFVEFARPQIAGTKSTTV

Key:
Test in all cases: log2 fold change, soluble protein after heating vs DMSO (PISA); higher = thermal stabilisation; K562 cells, 10 uM, 30 min; active = over 0.2 and 3.5 SD of the protein, either way, in both replicates (recomputed)
[1] = compound: C1COCCN1CCN2C3=CC=CC=C3N=C2NC(=O)C4=CC(=CC=C4)[N+](=O)[O-] [IRAK-1-4 Inhibitor I]
How it was run: (§1)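 K562 cells at 2×10^6 cells/mL were treated with 10 μM compound for 30 min. Aliquots were heated for 3 min across 48°C-58°C, pooled, and extracted in PBS with 0.5% NP-40 at 4°C; soluble protein was the supernatant after 21,000xg for 90 min. Soluble protein was quantified by TMTpro 16plex LC-MS/MS with channel sums equalised, and reported as log2 fold change in thermal stability against DMSO controls, with values from duplicates.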

[2] = compound: C=CC(=O)N1CCC[C@@H](n2nc(-c3ccc(Oc4ccccc4)cc3)c3c(N)ncnc32)C1 [ibrutinib]
How it was run: as §1

[3] = compound: CC(=O)c1cnc2ccc(-c3cc(Cl)c(O)c(Cl)c3)nc2c1N[C@H]1CC[C@H](CN(C)C)CC1
How it was run: as §1

[4] = compound: CC(C)(C)Cn1c(N)nc2ccc(-c3[nH]c(C(C)(C)C)nc3-c3ccc(F)cc3)nc21 [ralimetinib]
How it was run: as §1

[5] = compound: CC(C)(O)CC(=O)NCCn1ccc2ncnc(Nc3ccc(Oc4cccc(C(F)(F)F)c4)c(Cl)c3)c21
How it was run: as §1

[6] = compound: CC(C)C1=C2N=C(C=C(N2N=C1)NCC3=CC=CC=C3)NCCCCCCN
How it was run: as §1

[7] = compound: CC(C)C[C@@H](C=O)NC(=O)[C@H](CC(C)C)NC(=O)[C@H](CC(C)C)NC(=O)OCc1ccccc1
How it was run: as §1

[8] = compound: CC(C)N(C[C@H]1O[C@@H](n2cnc3c(N)ncnc32)[C@H](O)[C@@H]1O)[C@H]1C[C@@H](CCc2nc3cc(C(C)(C)C)ccc3[nH]2)C1 [pinometostat]
How it was run: as §1

[9] = compound: CC1=C(C2=C(C=C1)C(=O)C3=CC=CC=C3N2CCCN)C
How it was run: as §1

[10] = compound: CC1=C(C=C(C=C1)NC(=O)C2=CC(=CC=C2)C(C)(C)C#N)NC3=CC4=C(C=C3)N=CN(C4=O)C
How it was run: as §1

[11] = compound: CC1=C(C=C(C=C1)NC(=O)C2=CC(=CC=C2)N(C)C)NC(=O)C3=CC=C(C=C3)O
How it was run: as §1

[12] = compound: CC1=CC=C(C=C1)SC2=C3C=C(SC3=CN=C2)C(=O)N
How it was run: as §1

[13] = compound: CC1=NC(=CC=C1)C2=C(N=C(N2)C(C)(C)C)C3=CC4=NC=CN=C4C=C3
How it was run: as §1

[14] = compound: CCCCN(Cc1ccc(C(=O)NO)cc1)C(=O)Nc1ccccc1 [Nexturastat A]
How it was run: as §1

[15] = compound: CCCS(=O)(=O)Nc1ccc(F)c(C(=O)c2c[nH]c3ncc(-c4ccc(Cl)cc4)cc23)c1F [vemurafenib]
How it was run: as §1

[16] = compound: CCCS(=O)(=O)Nc1ccc(F)c(C(=O)c2c[nH]c3ncc(Cl)cc23)c1F
How it was run: as §1

[17] = compound: CCCc1cc(C)[nH]c(=O)c1CNC(=O)c1cc(-c2ccnc(N3CCN(C)CC3)c2)cc2c1cnn2C(C)C
How it was run: as §1

[18] = compound: CCN(CC)Cc1ccc2cc(COC(=O)Nc3ccc(C(=O)NO)cc3)ccc2c1 [givinostat]
How it was run: as §1

[19] = compound: CCN(CCCOc1ccc2c(Nc3cc(CC(=O)Nc4cccc(F)c4)[nH]n3)ncnc2c1)CCOP(=O)(O)O [barasertib]
How it was run: as §1

[20] = compound: CC1=C(C(CC(=O)N1)C2=CC=C(C=C2)C(F)(F)F)C(=O)NC3=C(C=C4C(=C3)C=NN4)F
How it was run: as §1

Measured: log2 fold change

CWC27 (UniProt Q6UX04)
inactive: [1] -0.045 | [2] -0.111 | [3] -0.133 | [4] 0.048 | [5] -0.08 | [6] 0.018 | [7] -0.007 | [8] -0.023 | [9] 0.199 | [10] -0.001 | [11] -0.035 | [12] 0.002 | [13] 0.021 | [14] -0.029 | [15] 0.128 | [16] 0.112 | [17] 0.009 | [18] 0.082 | [19] 0.073

DCTN1 isoform 4 (UniProt Q14203)
inactive: [1] -0.101 | [2] -0.02 | [3] -0.001 | [4] 0.114 | [5] -0.086 | [7] 0.07 | [8] 0.138 | [9] 0.019 | [10] 0.022 | [11] -0.017 | [12] 0.015 | [13] -0.039 | [14] 0.116 | [15] -0.015 | [16] 0.019 | [17] 0.102 | [18] 0.104 | [19] 0.033
active: [6] -0.303

DAB2 (UniProt P98082)
inactive: [1] -0.009 | [2] 0.004 | [3] -0.093 | [4] 0.082 | [5] -0.119 | [6] -0.02 | [7] 0.138 | [8] 0.049 | [9] -0.075 | [10] 0.016 | [11] 0.015 | [12] -0.03 | [13] -0.046 | [14] 0.058 | [15] -0.033 | [16] 0.064 | [17] 0.036 | [18] 0.109 | [19] 0.072

DCTPP1 (UniProt Q9H773)
inactive: [1] 0.017 | [2] 0.011 | [3] 0.03 | [4] 0.062 | [5] -0.039 | [6] 0.075 | [7] -0.105 | [8] -0.067 | [9] 0.165 | [10] 0.003 | [11] -0.078 | [12] 0.009 | [13] 0.008 | [14] 0.067 | [15] 0.126 | [16] -0.043 | [17] -0.009 | [18] -0.019 | [19] 0.059

CYB561 (UniProt P49447)
inactive: [1] 0.122 | [2] 0.044 | [3] -0.111 | [4] -0.175 | [6] 0.067 | [7] -0.087 | [8] -0.1 | [20] 0.048 | [9] 0.029 | [11] -0.015 | [12] 0.077 | [13] -0.054 | [15] 0.391 | [16] 0.001 | [17] -0.106 | [18] -0.004 | [19] -0.078

CYP46A1 (UniProt Q9Y6A2)
inactive: [1] 0.036 | [2] -0.022 | [3] -0.077 | [4] -0.273 | [7] 0.235 | [8] 0.033 | [9] -0.033 | [10] -0.046 | [11] 0.019 | [12] -0.195 | [13] -0.193 | [15] -0.051 | [16] -0.336 | [17] -0.162 | [19] 0.006

DAD1 (UniProt P61803)
inactive: [1] 0.025 | [2] -0.113 | [3] -0.036 | [5] -0.161 | [6] -0.108 | [8] 0.038 | [20] -0.143 | [9] 0.005 | [10] -0.135 | [12] -0.152 | [13] 0.038 | [14] 0.06 | [15] -0.037 | [16] 0.048 | [17] 0.025 | [18] 0.104 | [19] 0.012

CTNND1 (UniProt O60716)
inactive: [1] -0.211 | [2] 0.006 | [3] -0.231 | [4] 0.419 | [5] 0.106 | [6] 0.028 | [7] 0.071 | [8] 0.241 | [9] 0.03 | [10] -0.107 | [11] 0.187 | [12] -0.014 | [13] 0.014 | [14] 0.432 | [15] 0.003 | [16] -0.065 | [17] 0.186 | [18] 0.035 | [19] -0.005

DCAF13 (UniProt Q9NV06)
inactive: [1] -0.079 | [2] 0.019 | [3] 0.101 | [4] 0.077 | [5] 0.032 | [6] -0.078 | [7] 0.165 | [8] 0.263 | [9] -0.33 | [10] -0.038 | [11] 0.007 | [12] -0.123 | [13] -0.067 | [14] 0.205 | [15] -0.117 | [16] -0.062 | [17] 0.089 | [18] 0.017 | [19] -0.084

Reprinted from the entries so far (2 entries):
DAD1 (UniProt P61803)
inactive: [1] 0.025 | [2] -0.113 | [3] -0.036 | [5] -0.161 | [6] -0.108 | [8] 0.038 | [20] -0.143 | [9] 0.005 | [10] -0.135 | [12] -0.152 | [13] 0.038 | [14] 0.06 | [15] -0.037 | [16] 0.048 | [17] 0.025 | [18] 0.104 | [19] 0.012

CTNND1 (UniProt O60716)
inactive: [1] -0.211 | [2] 0.006 | [3] -0.231 | [4] 0.419 | [5] 0.106 | [6] 0.028 | [7] 0.071 | [8] 0.241 | [9] 0.03 | [10] -0.107 | [11] 0.187 | [12] -0.014 | [13] 0.014 | [14] 0.432 | [15] 0.003 | [16] -0.065 | [17] 0.186 | [18] 0.035 | [19] -0.005

(next part)

DBNL isoform 3 (UniProt Q9UJU6)
inactive: [1] -0.075 | [2] -0.122 | [3] 0.006 | [4] -0.015 | [5] -0.132 | [6] -0.136 | [7] -0.007 | [8] -0.044 | [9] -0.066 | [10] -0.051 | [11] -0.019 | [12] 0.011 | [13] 0.113 | [14] -0.082 | [15] 0.07 | [16] 0.1 | [17] -0.006 | [18] 0.036 | [19] 0.045

CYREN isoform 4 (UniProt Q9BWK5)
inactive: [1] -0.115 | [2] -0.058 | [3] -0.061 | [8] -0.042 | [12] -0.059 | [13] 0.042 | [15] -0.069 | [16] 0 | [17] -0.001 | [19] -0.247

DCP2 (UniProt Q8IU60)
inactive: [1] -0.372 | [3] -0.265 | [4] 0.105 | [5] 0.147 | [7] 0.185 | [8] 0.038 | [9] -0.111 | [10] -0.134 | [11] -0.006 | [12] 0.016 | [13] -0.089 | [14] 0.174 | [15] 0.064 | [16] 0.055

CTU1 (UniProt Q7Z7A3)
inactive: [1] 0.026 | [2] 0.041 | [3] 0.02 | [4] 0.005 | [5] -0.054 | [6] -0.052 | [7] -0.041 | [8] 0.007 | [9] -0.021 | [10] 0.011 | [11] -0.023 | [12] 0.061 | [13] 0.059 | [14] -0.022 | [15] 0.065 | [16] 0.034 | [17] -0.035 | [18] 0.043 | [19] 0

CTSV (UniProt O60911)
active: [6] -0.917
inactive: [1] 0.032 | [2] -0.002 | [3] 0.09 | [4] -0.035 | [5] -0.005 | [7] 0.14 | [8] 0.011 | [9] 0.125 | [10] 0 | [11] 0.019 | [12] 0 | [13] -0.017 | [14] -0.043 | [15] -0.021 | [16] -0.006 | [17] -0.062 | [18] 0.194 | [19] 0.032

DBN1 isoform 3 (UniProt Q16643)
inactive: [1] -0.06 | [2] 0.099 | [3] 0.061 | [4] 0.072 | [5] 0.151 | [6] 0.047 | [7] -0.02 | [8] -0.005 | [9] -0.091 | [10] -0.079 | [11] 0.045 | [12] 0.016 | [13] -0.002 | [14] 0.104 | [15] 0.075 | [16] 0.032 | [17] -0.062 | [18] -0.026 | [19] -0.038

DCTN5 (UniProt Q9BTE1)
inactive: [1] -0.041 | [2] 0.026 | [3] -0.016 | [4] -0.032 | [6] -0.038 | [7] 0.072 | [8] -0.006 | [20] -0.01 | [9] 0.02 | [10] -0.006 | [11] 0 | [12] 0.002 | [13] 0.004 | [15] 0.047 | [16] 0.011 | [17] -0.02 | [18] -0.147 | [19] 0.027

DBR1 (UniProt Q9UK59)
inactive: [1] -0.04 | [2] 0.02 | [3] -0.043 | [4] 0.037 | [5] 0.006 | [6] 0.032 | [7] -0.026 | [8] -0.012 | [9] 0.114 | [10] -0.005 | [11] 0.028 | [12] 0.007 | [13] 0.049 | [14] -0.007 | [15] 0.024 | [16] 0.037 | [17] -0.033 | [18] -0.16 | [19] -0.022

DCUN1D1 (UniProt Q96GG9)
inactive: [1] 0.031 | [2] 0.016 | [3] -0.06 | [4] -0.047 | [5] -0.002 | [6] -0.061 | [7] -0.022 | [8] -0.035 | [9] 0.018 | [10] -0.027 | [11] -0.077 | [12] 0.022 | [13] 0.078 | [14] 0.018 | [15] 0.008 | [16] 0.05 | [17] -0.028 | [18] -0.018 | [19] 0.013
